# Test results taken from the supplement of paper PMC12819154, “High-throughput peptide-centric local stability assay extends protein–ligand identification to membrane proteins, tissues and bacteria” (Nature Structural & Molecular Biology, 2025).
# Sequences of proteins named here, by UniProt entry; tags and fusion partners are left off. A change or cut given only in a name is not applied to a line headed by its entry.
# UniProt Q6GQW0: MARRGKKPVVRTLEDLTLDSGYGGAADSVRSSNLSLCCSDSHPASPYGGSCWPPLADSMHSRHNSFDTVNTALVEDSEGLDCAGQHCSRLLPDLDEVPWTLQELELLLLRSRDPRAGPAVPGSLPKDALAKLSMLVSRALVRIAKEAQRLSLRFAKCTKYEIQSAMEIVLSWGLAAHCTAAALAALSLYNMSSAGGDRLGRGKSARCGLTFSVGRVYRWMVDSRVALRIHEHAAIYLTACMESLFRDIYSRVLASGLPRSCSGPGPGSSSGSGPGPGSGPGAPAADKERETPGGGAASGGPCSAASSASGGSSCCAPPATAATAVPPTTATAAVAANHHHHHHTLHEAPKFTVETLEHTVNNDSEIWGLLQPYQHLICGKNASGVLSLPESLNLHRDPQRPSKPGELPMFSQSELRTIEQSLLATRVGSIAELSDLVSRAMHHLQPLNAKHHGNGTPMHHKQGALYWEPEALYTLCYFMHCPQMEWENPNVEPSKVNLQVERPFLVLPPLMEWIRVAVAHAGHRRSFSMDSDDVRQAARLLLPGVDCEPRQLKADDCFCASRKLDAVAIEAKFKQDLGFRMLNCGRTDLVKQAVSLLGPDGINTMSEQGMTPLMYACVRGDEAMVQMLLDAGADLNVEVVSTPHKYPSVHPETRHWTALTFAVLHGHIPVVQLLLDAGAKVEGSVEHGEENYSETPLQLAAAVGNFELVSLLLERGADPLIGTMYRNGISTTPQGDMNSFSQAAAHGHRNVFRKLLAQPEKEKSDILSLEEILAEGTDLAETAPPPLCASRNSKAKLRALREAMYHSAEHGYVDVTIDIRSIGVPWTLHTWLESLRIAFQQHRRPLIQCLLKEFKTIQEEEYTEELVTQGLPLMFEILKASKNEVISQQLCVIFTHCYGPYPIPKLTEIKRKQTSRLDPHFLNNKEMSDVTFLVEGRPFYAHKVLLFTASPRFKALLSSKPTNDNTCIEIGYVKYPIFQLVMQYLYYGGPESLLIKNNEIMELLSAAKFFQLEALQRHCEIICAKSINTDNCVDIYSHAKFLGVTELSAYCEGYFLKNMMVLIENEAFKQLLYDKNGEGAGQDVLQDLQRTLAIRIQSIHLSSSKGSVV
# UniProt Q6PCL9: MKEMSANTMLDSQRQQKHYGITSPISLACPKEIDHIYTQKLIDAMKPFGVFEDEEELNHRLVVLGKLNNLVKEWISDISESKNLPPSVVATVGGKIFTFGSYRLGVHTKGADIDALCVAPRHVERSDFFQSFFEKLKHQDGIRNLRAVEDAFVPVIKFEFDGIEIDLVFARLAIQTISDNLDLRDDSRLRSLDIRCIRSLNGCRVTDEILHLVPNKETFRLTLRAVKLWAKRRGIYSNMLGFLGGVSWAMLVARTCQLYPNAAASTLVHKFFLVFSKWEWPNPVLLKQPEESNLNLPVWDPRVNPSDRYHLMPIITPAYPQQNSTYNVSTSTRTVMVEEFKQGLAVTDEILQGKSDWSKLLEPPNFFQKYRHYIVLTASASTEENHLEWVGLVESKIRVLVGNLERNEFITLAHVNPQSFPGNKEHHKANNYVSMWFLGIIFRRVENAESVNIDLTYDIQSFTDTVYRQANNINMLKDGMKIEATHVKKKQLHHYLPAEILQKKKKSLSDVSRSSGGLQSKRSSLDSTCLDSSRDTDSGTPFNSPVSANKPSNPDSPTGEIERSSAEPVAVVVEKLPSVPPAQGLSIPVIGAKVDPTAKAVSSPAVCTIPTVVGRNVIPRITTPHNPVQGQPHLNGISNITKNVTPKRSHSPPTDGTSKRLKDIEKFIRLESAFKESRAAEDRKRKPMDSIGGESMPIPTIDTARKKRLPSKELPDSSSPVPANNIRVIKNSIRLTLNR
# UniProt Q6PAL0: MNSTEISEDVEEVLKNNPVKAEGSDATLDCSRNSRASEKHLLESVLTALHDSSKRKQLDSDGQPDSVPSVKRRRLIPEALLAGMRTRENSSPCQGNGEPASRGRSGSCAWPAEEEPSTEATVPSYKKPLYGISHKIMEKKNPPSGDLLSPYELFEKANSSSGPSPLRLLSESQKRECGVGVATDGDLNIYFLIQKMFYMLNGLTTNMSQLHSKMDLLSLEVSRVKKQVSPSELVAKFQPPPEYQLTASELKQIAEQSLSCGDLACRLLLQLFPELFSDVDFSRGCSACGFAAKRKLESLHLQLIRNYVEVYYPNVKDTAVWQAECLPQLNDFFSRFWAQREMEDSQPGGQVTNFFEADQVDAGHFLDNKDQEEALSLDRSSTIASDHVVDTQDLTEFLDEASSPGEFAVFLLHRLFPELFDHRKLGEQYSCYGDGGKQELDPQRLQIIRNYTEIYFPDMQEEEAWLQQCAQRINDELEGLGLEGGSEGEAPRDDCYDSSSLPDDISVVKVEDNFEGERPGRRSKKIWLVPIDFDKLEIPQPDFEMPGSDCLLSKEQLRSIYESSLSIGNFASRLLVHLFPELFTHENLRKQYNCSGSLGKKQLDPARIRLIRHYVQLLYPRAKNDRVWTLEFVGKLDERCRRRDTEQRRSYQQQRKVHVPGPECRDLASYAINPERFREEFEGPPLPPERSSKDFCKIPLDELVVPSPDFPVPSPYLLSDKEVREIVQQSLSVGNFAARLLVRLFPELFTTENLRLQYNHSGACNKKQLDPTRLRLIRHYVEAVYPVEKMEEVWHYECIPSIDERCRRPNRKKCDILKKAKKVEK
# UniProt Q6P8X1: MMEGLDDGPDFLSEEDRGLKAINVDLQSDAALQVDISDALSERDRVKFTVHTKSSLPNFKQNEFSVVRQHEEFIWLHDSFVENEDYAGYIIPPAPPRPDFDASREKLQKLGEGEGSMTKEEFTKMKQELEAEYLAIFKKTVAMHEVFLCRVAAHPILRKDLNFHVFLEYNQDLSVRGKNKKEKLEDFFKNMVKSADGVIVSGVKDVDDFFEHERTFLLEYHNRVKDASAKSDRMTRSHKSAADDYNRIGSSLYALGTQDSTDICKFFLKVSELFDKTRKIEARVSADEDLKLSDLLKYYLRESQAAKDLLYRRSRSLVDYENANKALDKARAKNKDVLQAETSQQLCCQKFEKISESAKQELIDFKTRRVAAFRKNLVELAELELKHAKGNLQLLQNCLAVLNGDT
# UniProt Q6PDX6: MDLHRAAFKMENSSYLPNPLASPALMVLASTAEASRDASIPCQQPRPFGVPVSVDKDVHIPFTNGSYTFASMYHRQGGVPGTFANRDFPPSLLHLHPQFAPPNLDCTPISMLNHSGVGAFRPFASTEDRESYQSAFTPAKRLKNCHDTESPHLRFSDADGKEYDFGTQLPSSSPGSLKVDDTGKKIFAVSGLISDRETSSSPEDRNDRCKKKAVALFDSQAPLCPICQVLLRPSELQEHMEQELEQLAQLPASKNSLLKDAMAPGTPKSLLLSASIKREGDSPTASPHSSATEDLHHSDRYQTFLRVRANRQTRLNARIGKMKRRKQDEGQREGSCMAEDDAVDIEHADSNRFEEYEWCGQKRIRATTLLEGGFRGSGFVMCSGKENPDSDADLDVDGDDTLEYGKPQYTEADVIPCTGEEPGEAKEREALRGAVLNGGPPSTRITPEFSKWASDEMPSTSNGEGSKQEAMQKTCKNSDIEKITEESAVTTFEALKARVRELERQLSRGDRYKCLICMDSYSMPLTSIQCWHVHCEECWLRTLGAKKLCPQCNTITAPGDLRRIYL
# UniProt Q6P3D0: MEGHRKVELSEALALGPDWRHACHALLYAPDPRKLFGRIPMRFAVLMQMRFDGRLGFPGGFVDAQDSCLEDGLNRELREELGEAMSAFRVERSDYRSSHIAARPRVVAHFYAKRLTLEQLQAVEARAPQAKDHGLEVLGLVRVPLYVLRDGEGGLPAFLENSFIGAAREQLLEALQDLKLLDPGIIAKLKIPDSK
# UniProt Q6PAT0: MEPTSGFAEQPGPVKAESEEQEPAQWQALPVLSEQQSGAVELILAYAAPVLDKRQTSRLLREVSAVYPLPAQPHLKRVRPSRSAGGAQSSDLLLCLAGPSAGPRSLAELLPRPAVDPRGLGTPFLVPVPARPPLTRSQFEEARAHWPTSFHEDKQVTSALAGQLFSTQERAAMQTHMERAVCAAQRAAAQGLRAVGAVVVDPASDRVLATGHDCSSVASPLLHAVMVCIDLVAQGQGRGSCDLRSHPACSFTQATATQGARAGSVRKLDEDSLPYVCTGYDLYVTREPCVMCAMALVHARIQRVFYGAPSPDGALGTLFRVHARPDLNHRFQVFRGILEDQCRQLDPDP
# UniProt Q6PDY0: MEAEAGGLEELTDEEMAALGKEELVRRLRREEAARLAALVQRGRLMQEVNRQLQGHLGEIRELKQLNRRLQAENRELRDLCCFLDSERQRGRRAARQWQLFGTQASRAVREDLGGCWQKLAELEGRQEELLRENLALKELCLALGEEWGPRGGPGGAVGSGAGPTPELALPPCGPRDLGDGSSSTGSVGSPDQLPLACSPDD
# UniProt Q6P4S8, whole entry: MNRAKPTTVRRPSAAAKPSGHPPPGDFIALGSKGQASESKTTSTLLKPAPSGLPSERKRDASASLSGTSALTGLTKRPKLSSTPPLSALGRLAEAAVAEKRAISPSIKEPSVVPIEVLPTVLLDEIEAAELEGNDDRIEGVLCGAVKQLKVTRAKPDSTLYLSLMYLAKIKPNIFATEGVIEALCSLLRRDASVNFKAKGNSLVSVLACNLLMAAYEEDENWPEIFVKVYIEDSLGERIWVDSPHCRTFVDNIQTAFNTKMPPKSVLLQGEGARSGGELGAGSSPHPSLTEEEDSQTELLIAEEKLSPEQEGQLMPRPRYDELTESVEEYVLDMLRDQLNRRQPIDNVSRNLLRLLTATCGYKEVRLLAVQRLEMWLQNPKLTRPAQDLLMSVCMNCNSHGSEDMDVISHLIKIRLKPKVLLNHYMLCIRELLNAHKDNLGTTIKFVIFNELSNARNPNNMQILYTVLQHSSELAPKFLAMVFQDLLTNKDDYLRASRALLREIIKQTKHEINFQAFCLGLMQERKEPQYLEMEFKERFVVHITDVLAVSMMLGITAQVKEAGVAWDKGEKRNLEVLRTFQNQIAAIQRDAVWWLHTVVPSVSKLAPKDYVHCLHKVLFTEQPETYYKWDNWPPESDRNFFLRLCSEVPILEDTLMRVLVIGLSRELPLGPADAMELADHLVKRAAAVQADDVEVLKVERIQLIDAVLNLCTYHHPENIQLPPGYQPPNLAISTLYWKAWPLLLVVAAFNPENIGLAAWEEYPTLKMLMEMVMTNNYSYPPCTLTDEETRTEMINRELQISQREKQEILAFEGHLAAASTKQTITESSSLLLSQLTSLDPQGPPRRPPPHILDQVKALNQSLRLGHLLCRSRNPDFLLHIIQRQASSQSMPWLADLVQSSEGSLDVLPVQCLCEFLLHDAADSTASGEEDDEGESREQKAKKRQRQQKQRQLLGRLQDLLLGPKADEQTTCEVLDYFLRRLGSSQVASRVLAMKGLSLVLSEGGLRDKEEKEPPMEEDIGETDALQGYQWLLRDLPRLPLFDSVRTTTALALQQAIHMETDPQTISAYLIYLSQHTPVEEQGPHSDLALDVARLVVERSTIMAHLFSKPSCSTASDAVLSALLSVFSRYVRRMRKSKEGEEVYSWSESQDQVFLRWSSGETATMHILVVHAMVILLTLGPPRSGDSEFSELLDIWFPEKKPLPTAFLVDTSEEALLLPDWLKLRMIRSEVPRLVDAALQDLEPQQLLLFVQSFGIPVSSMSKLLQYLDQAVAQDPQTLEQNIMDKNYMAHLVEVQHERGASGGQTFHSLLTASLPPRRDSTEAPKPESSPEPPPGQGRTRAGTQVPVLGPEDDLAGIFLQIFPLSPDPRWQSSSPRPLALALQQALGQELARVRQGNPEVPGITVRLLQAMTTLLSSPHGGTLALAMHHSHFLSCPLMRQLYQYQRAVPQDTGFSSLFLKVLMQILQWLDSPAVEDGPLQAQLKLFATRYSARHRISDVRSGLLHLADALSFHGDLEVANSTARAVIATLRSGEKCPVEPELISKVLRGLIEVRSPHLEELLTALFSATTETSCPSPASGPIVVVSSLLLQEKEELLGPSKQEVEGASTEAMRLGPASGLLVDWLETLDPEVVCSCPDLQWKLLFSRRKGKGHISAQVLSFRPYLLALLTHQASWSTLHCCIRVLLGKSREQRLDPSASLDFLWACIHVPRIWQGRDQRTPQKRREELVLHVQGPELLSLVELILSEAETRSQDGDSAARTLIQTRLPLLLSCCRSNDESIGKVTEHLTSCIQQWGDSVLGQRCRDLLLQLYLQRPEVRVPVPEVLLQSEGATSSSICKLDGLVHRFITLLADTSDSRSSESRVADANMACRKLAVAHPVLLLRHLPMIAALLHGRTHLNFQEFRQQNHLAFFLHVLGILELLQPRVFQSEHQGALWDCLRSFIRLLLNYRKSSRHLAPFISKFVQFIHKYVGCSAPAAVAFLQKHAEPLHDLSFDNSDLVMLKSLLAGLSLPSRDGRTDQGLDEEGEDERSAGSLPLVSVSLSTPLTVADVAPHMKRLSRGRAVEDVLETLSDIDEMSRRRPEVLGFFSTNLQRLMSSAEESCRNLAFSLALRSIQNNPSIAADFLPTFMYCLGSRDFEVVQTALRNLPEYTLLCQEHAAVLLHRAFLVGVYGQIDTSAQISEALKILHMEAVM
# Some of the results follow. Most values lie at the level of the controls, where differences are scatter.
# Compound: CN[C@@H]1C[C@H]2O[C@@](C)([C@@H]1OC)n1c3ccccc3c3c4c(c5c6ccccc6n2c5c31)C(=O)NC4 [staurosporine]
# Assay: log2 fold change of tryptic peptide abundance, ligand vs vehicle (limited proteolysis) (log2 ratio); higher = more trypsin-susceptible (destabilized)
# Settings: ligand concentration: 20 uM; sample: mouse liver crude lysate; replicate design: treated separately
row,Target,log2 fold change
1,"UniProt Q6GQW0 (peptide sequence: LDPHFLNNK, peptide start residue: 833)",-0.174
2,"UniProt Q6PCL9 (peptide sequence: SSLDSTCLDSSR, peptide start residue: 523)",0.216
3,"UniProt Q6IEE6 (peptide sequence: ESEDEEEEEEERR, peptide start residue: 569)",0.208
4,"UniProt Q6NVF0 (peptide sequence: GINVNQLHYR, peptide start residue: 504)",0.505
5,"UniProt Q6DID5 (peptide sequence: LDGGQNPPTR, peptide start residue: 298)",0.237
6,"UniProt Q6PAL0 (peptide sequence: ANSSSGPSPLR, peptide start residue: 157)",-0.0539
7,"UniProt Q69ZW3 (peptide sequence: DTDFTKKPCASLR, peptide start residue: 774)",-0.229
8,"UniProt Q6NVF9 (peptide sequence: RELHGQSPVVTPCNK, peptide start residue: 147)",-0.2
9,"UniProt Q6P8X1 (peptide sequence: MKQELEAEYLAIFKK, peptide start residue: 125)",-0.508
10,"UniProt Q6PDG5 (peptide sequence: RGHREEEQEDLTK, peptide start residue: 329)",0.357
11,"UniProt Q6P9S0 (peptide sequence: VADMATNTR, peptide start residue: 61)",0.184
12,"UniProt Q6P3Y5 (peptide sequence: MATPYMNHYMR, peptide start residue: 460)",-0.486
13,"UniProt Q6PDX6 (peptide sequence: KQDEGQR, peptide start residue: 326)",-0.0744
14,"UniProt Q6IQX8 (peptide sequence: AHPGAQAFQCPHCGHR, peptide start residue: 82)",0.797
15,"UniProt Q6P4T1 (peptide sequence: AVVAQELNK, peptide start residue: 808)",0.233
16,"UniProt Q6P3D0 (peptide sequence: ELREELGEAMSAFRVER, peptide start residue: 76)",-0.44
17,"UniProt Q6A009 (peptide sequence: THLPDFLICK, peptide start residue: 860)",0.249
18,"UniProt Q6NZR5 (peptide sequence: DVAVVEGGLR, peptide start residue: 990)",0.183
19,"UniProt Q6PAT0 (peptide sequence: GLGTPFLVPVPARPPLTR, peptide start residue: 119)",0.144
20,"UniProt Q6NXL6 (peptide sequence: FSGESQSPGDSGK, peptide start residue: 169)",0.614
21,"UniProt Q6A068 (peptide sequence: KKESDLPSAILQTSGVSEFTK, peptide start residue: 270)",-0.242
22,"UniProt Q6PDY0 (peptide sequence: QLQGHLGEIR, peptide start residue: 52)",0.6
23,"UniProt Q6P4S8 (peptide sequence: SLLAGLSLPSR, peptide start residue: 2005)",-0.216
24,"UniProt Q6VGS5 (peptide sequence: RLWQQVELK, peptide start residue: 840)",0.0965
25,"UniProt Q6DTY7 (peptide sequence: ELTQNPLKK, peptide start residue: 6)",-0.17

# Looked up above.
# Value of UniProt Q6PAL0 (peptide sequence: ANSSSGPSPLR, peptide start residue: 157) under log2 fold change: -0.0539
# Value of UniProt Q6PDX6 (peptide sequence: KQDEGQR, peptide start residue: 326) under log2 fold change: -0.0744
